# According to PubChem BioAssay (NCATS):
# Some of the results follow. Shown are side measurements of this screen, not its main read-out; they come without a call. Compounds called inactive in the main read-out are mostly missing here. Potencies come from curve fits of mixed quality, noted in brackets.
# Assay: A High-Content qHTS Against Drug Library for the Identification of Small Molecules that Inhibit DYT1 Early Onset Primary Dystonia-Associated Cell Pathology (AID 1645839)
# Conditions: HEK293 Flp-In EGFP-delE TorsinA, punctate imaging, 48 h; measured here: cell count cytotoxicity
# Procedure, shortened: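 In this high-content image screen, delE TorsinA mislocalization in inducible Flp-In 293 cells is scored as %pathology, with cell count serving as the counterscreen. Compound exposure lasts 48 h under tetracycline induction in reduced-serum medium.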
row,SMILES,AC50
1,O[C@@H](COc1cccc2ncccc12)CN1CCN(C2c3ccccc3[C@@H]3[C@H](c4ccccc42)C3(F)F)CC1 (stereo not given in full),"6.31 µM [falling, full curve, poor fit]"
2,O=C(Nc1ccccc1)OCC(CN1CCCCC1)OC(=O)Nc1ccccc1 (stereo not given),"35.5 µM [falling, single point]"
3,Cc1c(C(=O)NN2CCCCC2)nn(-c2ccc(Cl)cc2Cl)c1-c1ccc(Cl)cc1,"17.8 µM [falling, partial curve, poor fit]"
4,Cc1cc2c(C(C)C)c(O)c(O)c(C=O)c2c(O)c1-c1c(C)cc2c(C(C)C)c(O)c(O)c(C=O)c2c1O,"1 µM [falling, full curve, poor fit]"
5,COC(=O)Nc1nc2ccc(S(=O)c3ccccc3)cc2[nH]1 (stereo not given),"0.316 µM [falling, full curve, poor fit]"
6,CN1CCN(C2Cc3ccccc3Sc3ccc(Cl)cc32)CC1 (stereo not given),"7.94 µM [falling, partial curve, poor fit]"
7,Cc1cc(C(C#N)c2ccc(Cl)cc2)c(Cl)cc1NC(=O)c1cc(I)cc(I)c1O (stereo not given),"5.01 µM [falling, full curve, poor fit]"
8,CN(C)C(=O)C(CCN1CCC(O)(c2ccc(Cl)cc2)CC1)(c1ccccc1)c1ccccc1,"35.5 µM [falling, single point]"
10,O=C1NC2CCCCN2C12CCN(CCCN1c3ccccc3CCc3ccc(Cl)cc31)CC2 (stereo not given),"2 µM [falling, full curve, poor fit]"
11,Clc1ccc(C(Cn2ccnc2)OCc2ccc(Sc3ccccc3)cc2)c(Cl)c1 (stereo not given),"1.12 µM [rising, full curve, poor fit]"
12,Clc1ccc(C(Cn2ccnc2)OCc2c(Cl)cccc2Cl)c(Cl)c1 (stereo not given),"35.5 µM [falling, single point]"
13,Cc1ncc([N+](=O)[O-])n1C,"2.51 µM [rising, full curve, poor fit]"
14,CCCCCCCCCCCCCCCCC(C(=O)O)C(O)(CC(=O)O)C(=O)O (stereo not given),"3.16 µM [falling, single point]"
15,CCN(CC)CCNc1ccc(CO)c2sc3ccccc3c(=O)c12,"5.62 µM [falling, partial curve, poor fit]"
16,O=C(c1ccc(OCCN2CCCCC2)cc1)c1c(-c2ccc(O)cc2)sc2cc(O)ccc12,"0.891 µM [falling, full curve, poor fit]"
17,CN(C)CCCN1c2ccccc2Sc2ccccc21,"3.16 µM [falling, partial curve]"
18,Cc1ccc(Nc2nccc(N(C)c3ccc4c(C)n(C)nc4c3)n2)cc1S(N)(=O)=O,"2.24 µM [rising, partial curve, poor fit]"
19,NC1(c2ccc(-c3nc4ccn5c(=O)[nH]nc5c4cc3-c3ccccc3)cc2)CCC1,"12.6 µM [falling, single point]"
20,CN1CCCCC1CCN1c2ccccc2Sc2ccc(S(C)=O)cc21 (stereo not given),"7.94 µM [falling, partial curve, poor fit]"

# Part of the list above, bar-delimited:
row | SMILES | AC50
18 | Cc1ccc(Nc2nccc(N(C)c3ccc4c(C)n(C)nc4c3)n2)cc1S(N)(=O)=O | 2.24 µM [rising, partial curve, poor fit]
19 | NC1(c2ccc(-c3nc4ccn5c(=O)[nH]nc5c4cc3-c3ccccc3)cc2)CCC1 | 12.6 µM [falling, single point]

# Additional results follow:

row,SMILES,AC50
1,C=C[C@H]1CN2CC[C@H]1C[C@H]2[C@H](O)c1ccnc2ccc(OC)cc12,"15.8 µM [falling, single point]"
2,O[C@@H](c1cc(C(F)(F)F)nc2c(C(F)(F)F)cccc12)[C@H]1CCCCN1,"2.82 µM [falling, full curve]"
3,O=C1Nc2ccc(Cl)cc2[C@@](C#CC2CC2)(C(F)(F)F)O1,"35.5 µM [falling, single point]"
4,NC(=O)NNc1ccccc1,"4.47 µM [falling, full curve]"
5,Cc1cc(O)c(C)c(C)c1O,"35.5 µM [falling, single point]"
6,OCCN1CCN(CCCN2c3ccccc3Sc3ccc(C(F)(F)F)cc32)CC1,"0.562 µM [falling, full curve, poor fit]"
7,Cc1nc(Nc2ncc(C(=O)Nc3c(C)cccc3Cl)s2)cc(N2CCN(CCO)CC2)n1,"1.12 µM [falling, full curve]"
8,C[C@@H](NCCCc1cccc(C(F)(F)F)c1)c1cccc2ccccc12,"7.08 µM [falling, full curve, poor fit]"
9,CC(=O)Oc1ccccc1C(=O)Nc1ncc([N+](=O)[O-])s1,"2 µM [falling, full curve, poor fit]"
10,COc1cc(NC(C)CCCN)c2ncccc2c1 (stereo not given),"6.31 µM [falling, partial curve]"
11,CC(=O)c1ccc2c(c1)N(CCCN1CCC(CCO)CC1)c1ccccc1S2,"11.2 µM [falling, partial curve, poor fit]"
12,CCOC(=O)[C@H](CCc1ccccc1)N[C@@H](C)C(=O)N1[C@H](C(=O)O)C[C@@H]2CCC[C@@H]21,"35.5 µM [rising, single point]"
13,CCCCCN=C(N)N/N=C/c1c[nH]c2ccc(OC)cc12,"25.1 µM [falling, single point]"
14,CCCS(=O)c1ccc2nc(NC(=O)OC)[nH]c2c1 (stereo not given),"6.31 µM [falling, partial curve, poor fit]"
15,Cc1c(C)c2c(c(C)c1OC(=O)CCC(=O)OCCO)CC[C@@](C)(CCC[C@H](C)CCC[C@H](C)CCCC(C)C)O2,"6.31 µM [falling, partial curve, poor fit]"
16,CCCCc1oc2ccc(NS(C)(=O)=O)cc2c1C(=O)c1ccc(OCCCN(CCCC)CCCC)cc1,"1.41 µM [falling, full curve, poor fit]"
17,CCN(CC)CCNC(=O)c1c(C)[nH]c(/C=C2\C(=O)Nc3ccc(F)cc32)c1C,"35.5 µM [falling, single point]"
18,CCCCCCCCCCCCCCCC[n+]1ccccc1,"35.5 µM [falling, single point]"
19,C1CCC(C(CC2CCCCN2)C2CCCCC2)CC1 (stereo not given),"3.98 µM [falling, full curve, poor fit]"
20,O=C(O)c1ccc(-n2nc(-c3ccccc3O)nc2-c2ccccc2O)cc1,"0.316 µM [falling, full curve, poor fit]"
